These are yes or no findings as the source states them, for the method shown. In cells and extracts the contact can be indirect.
Target: HoxE (VC fusion) (Nematostella)
Test: split reporter; Venus BiFC: VC-Hox and VN-TF co-expressed in live Drosophila embryos with the corresponding Hox-Gal4 driver (abdA-Gal4 for AbdA); epidermis, stage 10-12, quantified at stage 10; affected if equal or lower than 50% of wild type, stronger if 120% or more

B1: VN-Zfh-1 (protein, UniProt P28166 1-1054)
chain: MLSCLAPSSSRFGQEDTIIQQSMPSTSPFAMQFPSLASTLLHHNQSPKHSNPGSSGIQDAHPNQPGAAADAFLVKCTQCHKRFPEYQSLSEHIASEHPHDKLNCGAAQPESDAEDEQSNMSGSSRRYAKSPLASNNNSSTANANNNSTSSQSMNNNSELAKNHNSANKMSPMCSPGSLTPGDLFAQLQHPPPQLPPHLHAQFMAAAASLAMQSARTASSPSQQQQQQLQQQQQLQQQQQHQMAMQQLLPPQLPGSNSSVGSNSAYDLDLSAPRSTSSPGSTTGDLSGAYPCMQCTASFASREQLEQHEQLHSPCGPAAVSNVSQTCRICHKAFANVYRLQRHMISHDESALLRKFKCKECDKAFKFKHHLKEHVRIHSGEKPFGCDNCGKRFSHSGSFSSHMTSKKCISMGLKLNNNRALLKRLEKSPGSASSASRRSPSDHGKGKLPEQPSLPGLPHPMSYFASDAQVQGGSAAPAPFPPFHPNYMNAALLAFPHNFMAAAAGLDPRVHPYSIQRLLQLSAAGQQQREEEREEQQKQQQHDEEETPDEPKLVMDIEEPETKEMAPTPEATEAATPIKREESREASPDPESYRSSSQAIKQEQEPLNVAEERQTPVEEHAPVEHAADLRCSRCSKQFNHPTELVQHEKVLCGLIKEELEQHFQQQQATSFALASASEEDEEDEEMDVEEEPRQESGERKVRVRTAINEEQQQQLKQHYSLNARPSRDEFRMIAARLQLDPRVVQVWFQNNRSRERKMQSFQNNQAAGAAPPMPIDSQASLTREDQPLDLSVKRDPLTPKSESSPPYIAPPSGEALNPEAINLSRKFSTSASMSPASISPSSAAALYFGAAPPPSPPNSQLDSTPRSGQAFPGLPPYMLPMSLPMEALFKMRPGGDFASNHALMNSIKLPDYRGTSLSPGGSEKRSWRDDDSRISHEDEFGAGVLMPPKPRRGKAETHGHAGDPDLPYVCDQCDKAFAKQSSLARHKYEHSGQRPYQCIECPKAFKHKHHLTEHKRLHSGEKPFQCSKCLKRFSHSGSYSQHMNHRYSYCKPYRE
For B1, the binding was “no binding”.

Reference: publication PMC4392834
